According to article PMC9120013, “Ribosome inhibition by C9ORF72-ALS/FTD-associated poly-PR and poly-GR proteins revealed by cryo-EM” (Nature Communications, 2022):

System: rabbit 80S ribosomes
Assay: Cryo-EM maximum-likelihood classification of rabbit 80S complexes
Assay type: binding, Oryctolagus cuniculus
Conditions: for percentage of ribosomes: Non-rotated, weak P/P tRNA / percentage of ribosomes: Rotated, P/E-tRNA / percentage of ribosomes: Non-rotated, P/P tRNA: 5 µM DPR; for percentage of ribosomes: Non-rotated, weak P/P tRNA: buffer 0.0; for percentage of ribosomes: Rotated, P/E-tRNA: buffer 12.3; for percentage of ribosomes: Non-rotated, P/P tRNA: buffer 80.9; for increase of ribosomes in the rotated state with P/E tRNA: versus buffer control

## N=C(N)NCCC[C@H](NC(=O)CNC(=O)[C@H](CCCNC(=N)N)NC(=O)CNC(=O)[C@H](CCCNC(=N)N)NC(=O)CNC(=O)[C@H](CCCNC(=N)N)NC(=O)CNC(=O)[C@H](CCCNC(=N)N)NC(=O)CNC(=O)[C@H](CCCNC(=N)N)NC(=O)CNC(=O)[C@H](CCCNC(=N)N)NC(=O)CNC(=O)[C@H](CCCNC(=N)N)NC(=O)CNC(=O)[C@H](CCCNC(=N)N)NC(=O)CNC(=O)[C@H](CCCNC(=N)N)NC(=O)CNC(=O)[C@H](CCCNC(=N)N)NC(=O)CNC(=O)[C@H](CCCNC(=N)N)NC(=O)CNC(=O)[C@H](CCCNC(=N)N)NC(=O)CNC(=O)[C@H](CCCNC(=N)N)NC(=O)CNC(=O)[C@H](CCCNC(=N)N)NC(=O)CNC(=O)[C@H](CCCNC(=N)N)NC(=O)CNC(=O)[C@H](CCCNC(=N)N)NC(=O)CNC(=O)[C@H](CCCNC(=N)N)NC(=O)CNC(=O)[C@H](CCCNC(=N)N)NC(=O)CNC(=O)[C@H](CCCNC(=N)N)NC(=O)CN)C(=O)O [GR20]
  percentage of ribosomes: Non-rotated, weak P/P tRNA: 22.1%
  percentage of ribosomes: Rotated, P/E-tRNA: 18.9%
  percentage of ribosomes: Non-rotated, P/P tRNA: 52.1%
  increase of ribosomes in the rotated state with P/E tRNA: 1.5 fold

## PRPRPRPRPRPRPRPRPRPRPRPRPRPRPRPRPRPRPRPR [PR20]
  percentage of ribosomes: Non-rotated, weak P/P tRNA: 0.0%
  percentage of ribosomes: Rotated, P/E-tRNA: 25.0%
  percentage of ribosomes: Non-rotated, P/P tRNA: 66.4%
  increase of ribosomes in the rotated state with P/E tRNA: 2 fold

Ends that are not written are not given here.
